Data taken from ChEMBL document CHEMBL3988442, “University of Dundee, Small-Polar-MMV Screening Library” (2021).

The filed quantity is “Percent Effect” (%).
How 0% and 100% were set is not recorded. Most values in the screen are low, and negative values occur.
The compounds are a random part of those screened.

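Whole-parasite assay of Trypanosoma brucei over 72 hours; the read-out is not stated. Compounds at 10 µM. Higher reads as stronger inhibition (inferred: compounds with an IC50 in retests scored well above the rest). Values scatter widely below zero; nearly all retest evidence comes from the higher of the two concentrations used. About 2,700 compounds were tested under these conditions; 0.51% (about 14) showed 50% or more at least once.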

Compound,effect
CC(NC(=O)NCCCn1cncn1)c1ccc(C#N)cc1 (centres unmarked),-97.86
CS(=O)(=O)N1CCN(CC(O)COc2ccc(Cl)cc2)CC1 (centres unmarked),-47.15
N#Cc1cccc(OCCN2CCn3c(nnc3C3CC3)C2)c1,-15.37
CCc1ocnc1C(=O)N1CCCC(n2nc(C)nc2C)C1 (centres unmarked),-16.18
Cc1ccnc(NC(=O)c2ccc(-n3ncc(C#N)c3N)cc2)c1,6.726
CC(O)CN1CCN(C(=O)c2cc3ccccc3n2C)CC1 (centres unmarked),-61.45
Cc1nc(C)n(CC2CCCN2Cc2nc(C)c3ccccc3n2)n1 (centres unmarked),-1.729
Cn1ncc(NCc2cccc(F)c2)c(Cl)c1=O,-20.07
O=c1[nH]c(CN2CCCC(Cn3cncn3)C2)nc2ccccc12 (centres unmarked),-24.96
O=C(CCc1nccs1)N1CCN(c2nccs2)CC1,-22.73
CCOc1ncccc1NC(=O)NC1CCN(c2ncccn2)CC1,-58.43
O=C(CCc1c(F)cccc1F)NS(=O)(=O)c1ccc2c(c1)OCCO2,-22.48
CCc1n[nH]c(C2CN(C(=O)c3ccc4c(c3)CCCC4)CCO2)n1 (centres unmarked),-40.69
CN(Cc1ccccc1)C(=O)CN1CCOC(Cn2cncn2)C1 (centres unmarked),4.314
COc1ccc(COCC(O)CNC(=O)c2cc(C)no2)cc1 (centres unmarked),4.396
Cc1csc(C2CCCN(C(=O)c3cccc4c3OCO4)C2)n1 (centres unmarked),15.65
O=C(CCc1ccccn1)N1CCCC1,-50.24
Cc1ccc(NC2CCN(C(=O)c3cnn(C(C)(C)C)c3)CC2)nn1,-40.96
O=C(c1cccn1Cc1cccs1)N1CCN2CCCCC2C1 (centres unmarked),-4.852
O=C(CN1CCc2c(ncn2C2CC2)C1)NC1CCN(C2CC2)CC1,-24.75
CNC(=O)C1CCN(CC(=O)Nc2cc(C(C)C)no2)CC1,-57.18
Cc1ccc(C(=O)N2CCN(Cc3cccs3)CC2)n1C,-40.69
CCn1cc(NC(=O)NCC(C)N(C)C2CC2)cn1 (centres unmarked),-51.62
CN(C)c1cc(CNC(=O)c2n[nH]c(=O)c3ccccc23)ccn1,-43.92
COc1ccc(OCCN2CCC(N3CCNC3=O)CC2)cc1,-55.53
Cc1ccc(C)c(OCCC(=O)N2CCCN(CC(N)=O)CC2)c1,-3.786
CN(C)c1ncccc1CNS(=O)(=O)c1ccc(C(N)=O)cc1,-4.346
CNc1snc(C)c1C(=O)N1CCCC(n2cc(C)cn2)C1 (centres unmarked),-21.29
Cc1cnn(CCNCc2ccccc2OCc2ccccn2)c1,-17.6
Cc1cc(C)n(CC2CCCN2CCc2ccccn2)n1 (centres unmarked),-13.7
CCc1nc(C2CCCN2C(=O)c2cc(Cl)c[nH]2)no1 (centres unmarked),-35.79
CCN(CC)CC1CCN(Cc2ccn(C)c(=O)c2)CC1,-51.67
CCc1nc2n(n1)CC(NCc1cc(OC)c3c(c1)OCCO3)CC2 (centres unmarked),-52.47
COc1cc(C(=O)NC(CC(=O)O)c2cccs2)cc(OC)c1C (centres unmarked),-40.16
CCc1noc(C)c1C(=O)N1CCCN(Cc2cscn2)CC1,-57.15
Cn1ncc(NCc2cccc(OCC(F)(F)F)c2)c(Cl)c1=O,-15.45
CN(Cc1ccsc1)C(=O)c1cc2c([nH]c1=O)CCC2,-37.54
CCCc1n[nH]c(C2CN(C(=O)c3cc4c(s3)CCC4)CCO2)n1 (centres unmarked),-4.004
CS(=O)(=O)c1ccc(CNC(=O)N2CCC(C(N)=O)CC2)cc1,-32.31
Cc1cnn(CC2CN(CC(=O)N(C)Cc3ccccc3)CCO2)c1 (centres unmarked),-37.81
CC(=O)N(Cc1noc(C)n1)C1CCN(Cc2c(C)noc2C)C1 (centres unmarked),-36.57
CC(C)(CNC(=O)CCCOc1cccc(F)c1)C(N)=O,-60.84
CC(NC(=O)NCCCN(C)S(C)(=O)=O)c1cccnc1 (centres unmarked),4.465
CCn1cnnc1CNC(=O)c1cc(Cl)ccc1F,-9.878

For reference, 3 entries once more:

{"compound": "Cc1cnn(CCNCc2ccccc2OCc2ccccn2)c1", "effect": -17.6}
{"compound": "O=C(CN1CCc2c(ncn2C2CC2)C1)NC1CCN(C2CC2)CC1", "effect": -24.75}
{"compound": "CCc1nc(C2CCCN2C(=O)c2cc(Cl)c[nH]2)no1", "stereo": "centres unmarked", "effect": -35.79}